Test results taken from publication PMC7482433.

The chains behind the UniProt entries cited, without tags or fusion partners.
UniProt Q4ZIN3: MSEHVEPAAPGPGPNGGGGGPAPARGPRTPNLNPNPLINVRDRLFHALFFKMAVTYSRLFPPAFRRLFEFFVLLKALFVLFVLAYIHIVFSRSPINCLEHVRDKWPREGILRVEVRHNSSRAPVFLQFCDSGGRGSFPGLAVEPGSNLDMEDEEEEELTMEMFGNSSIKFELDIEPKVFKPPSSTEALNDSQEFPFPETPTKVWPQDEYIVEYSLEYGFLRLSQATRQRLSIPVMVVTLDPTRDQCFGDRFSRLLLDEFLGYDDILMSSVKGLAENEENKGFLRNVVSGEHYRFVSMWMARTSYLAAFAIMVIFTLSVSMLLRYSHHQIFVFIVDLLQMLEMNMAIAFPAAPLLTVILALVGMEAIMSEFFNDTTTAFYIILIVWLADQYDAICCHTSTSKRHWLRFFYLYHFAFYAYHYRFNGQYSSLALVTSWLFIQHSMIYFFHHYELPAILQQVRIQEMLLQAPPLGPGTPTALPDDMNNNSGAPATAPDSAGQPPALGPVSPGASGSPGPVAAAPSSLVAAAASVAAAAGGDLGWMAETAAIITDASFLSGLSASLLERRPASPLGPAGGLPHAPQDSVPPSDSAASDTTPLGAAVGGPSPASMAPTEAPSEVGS
UniProt Q86TM6: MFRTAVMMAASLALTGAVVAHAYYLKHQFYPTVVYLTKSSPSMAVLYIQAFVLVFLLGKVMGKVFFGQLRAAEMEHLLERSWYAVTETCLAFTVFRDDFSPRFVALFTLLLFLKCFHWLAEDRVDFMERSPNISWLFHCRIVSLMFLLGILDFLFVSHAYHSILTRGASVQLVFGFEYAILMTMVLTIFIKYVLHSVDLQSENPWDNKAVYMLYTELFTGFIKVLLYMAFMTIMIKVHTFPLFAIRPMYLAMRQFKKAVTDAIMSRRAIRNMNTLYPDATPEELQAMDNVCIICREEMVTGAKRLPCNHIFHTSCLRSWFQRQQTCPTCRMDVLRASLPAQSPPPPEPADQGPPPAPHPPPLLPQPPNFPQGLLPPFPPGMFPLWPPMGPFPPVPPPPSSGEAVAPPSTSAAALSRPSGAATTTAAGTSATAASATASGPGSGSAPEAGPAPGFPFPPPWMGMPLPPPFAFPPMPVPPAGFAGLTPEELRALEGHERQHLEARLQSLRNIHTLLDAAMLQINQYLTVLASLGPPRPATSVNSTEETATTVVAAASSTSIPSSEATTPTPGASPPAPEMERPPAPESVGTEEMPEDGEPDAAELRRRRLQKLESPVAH
UniProt Q71RG4: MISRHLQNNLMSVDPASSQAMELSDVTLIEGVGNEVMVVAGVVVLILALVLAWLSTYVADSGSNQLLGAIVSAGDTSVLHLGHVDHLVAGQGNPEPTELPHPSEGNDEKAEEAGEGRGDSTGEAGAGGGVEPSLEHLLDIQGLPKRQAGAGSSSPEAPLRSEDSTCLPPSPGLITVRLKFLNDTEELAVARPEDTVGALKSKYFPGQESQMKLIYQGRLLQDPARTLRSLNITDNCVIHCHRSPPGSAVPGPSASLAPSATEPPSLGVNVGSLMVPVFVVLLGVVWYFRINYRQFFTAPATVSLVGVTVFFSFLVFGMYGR

Legend:
[1] = target: endogenously tagged Membralin-mNeonGreen (human (endogenous in HeLa)) (UniProt Q4ZIN3); assay: affinity purification with mass spectrometry; mNeonGreen-Trap magnetic beads on endogenously tagged MBRL-mNG from HeLa lysate (1% DMNG); against an untagged control cell line
[2] = target: T1, 3xFLAG-RNF185 (human) (UniProt Q96GF1); assay: affinity purification with mass spectrometry; FLAG-M2 magnetic beads on FLAG-tagged baits from detergent extracts (1% DMNG, 50 mM Tris-HCl pH 7.5, 150 mM NaCl), 3xFLAG peptide elution; cells untreated or treated with the p97 inhibitor CB-5083; enrichment over an untagged control
T1 sequence: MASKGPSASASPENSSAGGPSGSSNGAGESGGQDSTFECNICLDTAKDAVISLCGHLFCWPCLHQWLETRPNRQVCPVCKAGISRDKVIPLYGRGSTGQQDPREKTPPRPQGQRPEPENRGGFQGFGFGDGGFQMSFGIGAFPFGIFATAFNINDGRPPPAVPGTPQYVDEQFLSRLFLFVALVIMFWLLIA

[3] = target: endogenously tagged Membralin-mNeonGreen (human (endogenous in HeLa)) (UniProt Q4ZIN3); assay: affinity purification with mass spectrometry; mNeonGreen-Trap magnetic beads on endogenously tagged MBRL-mNG from HeLa lysate (1% DMNG); against an untagged control cell line; remark: listed apart in the source
[4] = target: T1, 3xFLAG-RNF185 (human); assay: affinity purification with mass spectrometry; FLAG-M2 magnetic beads on FLAG-tagged baits from detergent extracts (1% DMNG, 50 mM Tris-HCl pH 7.5, 150 mM NaCl), 3xFLAG peptide elution; cells untreated or treated with the p97 inhibitor CB-5083; enrichment over an untagged control; remark: listed apart in the source
[5] = target: MBRL-3xFLAG (human) (UniProt Q4ZIN3); assay: as above
[6] = target: FLAG-tagged HRD1 (human) (UniProt Q86TM6); assay: as above

binding [1]: binds
Molecule: TMUB2 (from UniProt Q71RG4 1-321)

binding [2]: binds
Molecule: p97 (from UniProt P55072 1-806)

binding [2]: binds
Molecule: endogenous Membralin (from UniProt Q4ZIN3 1-620)

binding [3]: binds
binding [4]: binds
binding [5]: binds
B1: Erlin2 (protein, UniProt O94905 1-339)
chain: MAQLGAVVAVASSFFCASLFSAVHKIEEGHIGVYYRGGALLTSTSGPGFHLMLPFITSYKSVQTTLQTDEVKNVPCGTSGGVMIYFDRIEVVNFLVPNAVYDIVKNYTADYDKALIFNKIHHELNQFCSVHTLQEVYIELFDQIDENLKLALQQDLTSMAPGLVIQAVRVTKPNIPEAIRRNYELMESEKTKLLIAAQKQKVVEKEAETERKKALIEAEKVAQVAEITYGQKVMEKETEKKISEIEDAAFLAREKAKADAECYTAMKIAEANKLKLTPEYLQLMKYKAIASNSKIYFGKDIPNMFMDSAGSVSKQFEGLADKLSFGLEDEPLETATKEN

binding [3]: binds
B2: endogenous RNF185 (protein, UniProt Q96GF1 1-192)
chain: T1 sequence

binding [3]: binds
binding [4]: binds
binding [5]: binds
B3: Erlin1 (protein, UniProt O75477 1-348)
chain: MNMTQARVLVAAVVGLVAVLLYASIHKIEEGHLAVYYRGGALLTSPSGPGYHIMLPFITTFRSVQTTLQTDEVKNVPCGTSGGVMIYIDRIEVVNMLAPYAVFDIVRNYTADYDKTLIFNKIHHELNQFCSAHTLQEVYIELFDQIDENLKQALQKDLNLMAPGLTIQAVRVTKPKIPEAIRRNFELMEAEKTKLLIAAQKQKVVEKEAETERKKAVIEAEKIAQVAKIRFQQKVMEKETEKRISEIEDAAFLAREKAKADAEYYAAHKYATSNKHKLTPEYLELKKYQAIASNSKIYFGSNIPNMFVDSSCALKYSDIRTGRESSLPSKEALEPSGENVIQNKESTG

binding [4]: binds
binding [6]: no binding
binding [5]: binds
B4: endogenous CYP51A1 (protein, UniProt Q16850 1-509)
chain: MAAAAGMLLLGLLQAGGSVLGQAMEKVTGGNLLSMLLIACAFTLSLVYLIRLAAGHLVQLPAGVKSPPYIFSPIPFLGHAIAFGKSPIEFLENAYEKYGPVFSFTMVGKTFTYLLGSDAAALLFNSKNEDLNAEDVYSRLTTPVFGKGVAYDVPNPVFLEQKKMLKSGLNIAHFKQHVSIIEKETKEYFESWGESGEKNVFEALSELIILTASHCLHGKEIRSQLNEKVAQLYADLDGGFSHAAWLLPGWLPLPSFRRRDRAHREIKDIFYKAIQKRRQSQEKIDDILQTLLDATYKDGRPLTDDEVAGMLIGLLLAGQHTSSTTSAWMGFFLARDKTLQKKCYLEQKTVCGENLPPLTYDQLKDLNLLDRCIKETLRLRPPIMIMMRMARTPQTVAGYTIPPGHQVCVSPTVNQRLKDSWVERLDFNPDRYLQDNPASGEKFAYVPFGAGRHRCIGENFAYVQIKTIWSTMLRLYEFDLIDGYFPTVNYTTMIHTPENPVIRYKRRSK

Like-named read-outs stand apart in the source and are kept apart here. No constants are given. Whether binding was seen depends on the method and setting. In cells and extracts the contact can be indirect. These calls come from enrichment with a bait or labelling near it, and not all partners need be listed. For some of these results: No binding means not detected with the bait. For some of these results: Tags and fused reporters may be left off the sequences shown. Each block holds one molecule with its values, some of them ahead of it.
